# The supplement of paper PMC4604168 (melanoma cell lines)
# The other results are listed elsewhere or left out. Single values are uncertain, as repeats are few or missing.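 Imaging used 1,536-well plates; nuclei positive for cleaved PARP by antibody were divided by total DNA-stained nuclei to yield the apoptosis fraction. Doses for screening kept most cells viable, and cell lines differ markedly in resting and induced cleaved-PARP levels.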
# Columns and labels:
# Experiment in all cases: cleaved PARP positive nuclei fraction relative to DMSO control; melanoma cells; higher = more apoptosis
# Conditions in all cases: library dose: low library concentration; 72 h
# [1] = tested on: MZ2-MEL
# [2] = tested on: MeWo
# [3] = tested on: RPMI7951
# [4] = tested on: RVH-421
# [5] = tested on: SkMel28
# [6] = tested on: SkMel2
# [7] = tested on: SkMel30
# [8] = tested on: SkMel5
# [9] = tested on: UACC257
# [10] = tested on: UACC62
# [11] = tested on: WM115
# [12] = tested on: WM1716
# [13] = tested on: WM1745
# [14] = tested on: WM3526
# [15] = tested on: WM3619
# [16] = tested on: WM451Lu
SMILES,cleaved PARP positive nuclei fraction [1],cleaved PARP positive nuclei fraction [2],cleaved PARP positive nuclei fraction [3],cleaved PARP positive nuclei fraction [4],cleaved PARP positive nuclei fraction [5],cleaved PARP positive nuclei fraction [6],cleaved PARP positive nuclei fraction [7],cleaved PARP positive nuclei fraction [8],cleaved PARP positive nuclei fraction [9],cleaved PARP positive nuclei fraction [10],cleaved PARP positive nuclei fraction [11],cleaved PARP positive nuclei fraction [12],cleaved PARP positive nuclei fraction [13],cleaved PARP positive nuclei fraction [14],cleaved PARP positive nuclei fraction [15],cleaved PARP positive nuclei fraction [16]
"CC(=O)O[C@@]12CO[C@@H]1C[C@H](O)[C@@]1(C)C(=O)[C@H](O)C3=C(C)[C@@H](OC(=O)[C@H](O)[C@@H](NC(=O)OC(C)(C)C)c4ccccc4)C[C@@](O)([C@@H](OC(=O)c4ccccc4)[C@H]21)C3(C)C [Docetaxel] + CC(C)(C)c1cnc(CSc2cnc(NC(=O)C3CCNCC3)s2)o1 [SNS-032] (first compound 0.0001 µM, partner dose 0.01 µM)",490%,91.8%,222%,81.4%,185%,1020%,160%,165%,652%,129%,416%,615%,165%,148%,119%,720%
"CCCCCCCCc1ccc(CCC(N)(CO)CO)cc1 [fingolimod] + C[C@@H]1CCN(C(=O)CC#N)C[C@@H]1N(C)c1ncnc2[nH]ccc12 [CP690550] (first compound 2 µM, partner dose 1 µM)",83.2%,70.2%,123%,56.5%,224%,116%,68.9%,140%,103%,107%,36.1%,267%,115%,134%,85.5%,112%
"CN(c1ncccc1CNc1nc(Nc2ccc3c(c2)CC(=O)N3)ncc1C(F)(F)F)S(C)(=O)=O + O=C(Nc1cccc(Cl)c1)Nc1ncc(CCNc2ncnc3ccsc23)s1 [SNS314] (first compound 0.08 µM, partner dose 0.0008 µM)",107%,133%,242%,77.1%,107%,154%,65.2%,122%,101%,99.2%,99.9%,111%,112%,44.5%,179%,138%
"COc1ccc(C2=N[C@@H](c3ccc(Cl)cc3)[C@@H](c3ccc(Cl)cc3)N2C(=O)N2CCNC(=O)C2)c(OC(C)C)c1 [Nutlin-3] + CC(C)CCN1c2nc(Nc3cc(F)c(O)c(F)c3)ncc2N(C)C(=O)C1C [BID1870] (first compound 0.1 µM, partner dose 0.2 µM)",56.9%,63.1%,32.9%,91%,85%,65.5%,120%,69.6%,37.8%,196%,117%,25.1%,89.5%,70.7%,103%,87.3%
"CCCCCCCCc1ccc(CCC(N)(CO)CO)cc1 [fingolimod] + CN(NC(=O)CC(=O)NN(C)C(=S)c1ccccc1)C(=S)c1ccccc1 [STA4783] (first compound 2 µM, partner dose 0.006 µM)",120%,161%,113%,51.9%,31.1%,88.2%,289%,235%,144%,344%,334%,88.5%,137%,77.3%,115%,158%
"C[C@]1(O)C[C@@H](c2nc(-c3ccc4ccc(-c5ccccc5)nc4c3)c3c(N)nccn32)C1 + CCCCCCCCCCCC1=C(O)C(=O)C=C(O)C1=O [Embelin] (first compound 0.4 µM, partner dose 1.2 µM)",101%,157%,67.4%,29.6%,98.1%,55.6%,413%,88.1%,158%,123%,55.8%,138%,116%,90.6%,78%,227%
"CCCCCCCCc1ccc(CCC(N)(CO)CO)cc1 [fingolimod] + CC1(C)NC(=O)N(c2ccc([N+](=O)[O-])c(C(F)(F)F)c2)C1=O [nilutamide] (first compound 2 µM, partner dose 1 µM)",141%,220%,111%,78.3%,58.5%,60.3%,822%,70.7%,150%,172%,106%,138%,120%,64.5%,109%,83.9%
"CS(=O)(=O)c1ccc(C(=O)Nc2ccc(Cl)c(-c3ccccn3)c2)c(Cl)c1 [vismodegib] + O=C(Nc1ccccc1)c1cc([N+](=O)[O-])ccc1Cl [GW9662] (first compound 1 µM, partner dose 2 µM)",123%,42.3%,67.4%,104%,91.1%,93.6%,35.8%,75%,62.6%,94.5%,51.1%,50.3%,80.4%,130%,150%,65.1%
"Cn1sc(=O)n(Cc2ccccc2)c1=O + O=C(Nc1ccccc1)c1cc([N+](=O)[O-])ccc1Cl [GW9662] (first compound 0.4 µM, partner dose 2 µM)",40.5%,99.8%,190%,132%,44.1%,114%,102%,68.9%,165%,102%,147%,80%,88.3%,75%,106%,183%
"NC(=O)c1ccc(N(C(N)=O)c2c(F)cccc2F)nc1-c1ccc(F)cc1F + O=C(O)C(=O)Nc1sc2c(c1C(=O)O)CCNC2 [TCS401] (first compound 0.4 µM, partner dose 1.66667 µM)",87.6%,59.7%,48%,135%,119%,54.9%,187%,68.1%,125%,125%,59.8%,53.3%,103%,68.9%,94%,142%
"CN(c1ncccc1CNc1nc(Nc2ccc3c(c2)CC(=O)N3)ncc1C(F)(F)F)S(C)(=O)=O + O=c1cc(-c2cccc3c2Sc2ccccc2S3)oc(N2CCOCC2)c1 [KU55933] (first compound 0.08 µM, partner dose 1 µM)",130%,63.2%,53.9%,88.3%,199%,60.9%,462%,45.7%,350%,151%,105%,106%,222%,79.8%,102%,200%
"Cn1sc(=O)n(Cc2ccccc2)c1=O + O=C(O)c1ccc(-c2c[nH]c3ncc(-c4ccccc4)cc23)cc1C1CCCC1 [GSK650394] (first compound 0.4 µM, partner dose 0.16 µM)",102%,108%,81.7%,141%,31%,187%,140%,139%,55.3%,67.1%,114%,41.5%,102%,75.9%,104%,71.4%
"NC1(c2ccc(-c3nc4ccn5c(=O)[nH]nc5c4cc3-c3ccccc3)cc2)CCC1 + O=C1NC(=O)/C(=C/c2ccc(-c3ccc(F)cc3O)o2)S1 [AS252424] (first compound 0.4 µM, partner dose 1 µM)",136%,72.9%,53.9%,181%,250%,22.1%,68.6%,67.8%,484%,274%,266%,57.4%,110%,119%,92.7%,38%
"NC1(c2ccc(-c3nc4ccn5c(=O)[nH]nc5c4cc3-c3ccccc3)cc2)CCC1 + O=c1cc(-c2cccc3c2Sc2ccccc2S3)oc(N2CCOCC2)c1 [KU55933] (first compound 0.4 µM, partner dose 1 µM)",28.1%,64.1%,67%,287%,347%,161%,46.4%,309%,118%,262%,301%,54%,95.6%,221%,70.5%,89.7%
"Cn1cnc2c(F)c(Nc3ccc(Br)cc3Cl)c(C(=O)NOCCO)cc21 [selumetinib] + CC1(C)NC(=O)N(c2ccc([N+](=O)[O-])c(C(F)(F)F)c2)C1=O [nilutamide] (first compound 0.015 µM, partner dose 1 µM)",464%,77.7%,90.6%,165%,213%,117%,198%,103%,137%,183%,52.2%,49.1%,95.5%,55%,113%,101%
"CC1(C)CCC(c2ccc(Cl)cc2)=C(CN2CCN(c3ccc(C(=O)NS(=O)(=O)c4ccc(N[C@H](CCN5CCOCC5)CSc5ccccc5)c(S(=O)(=O)C(F)(F)F)c4)cc3)CC2)C1 + O=c1cc(-c2cccc3c2Sc2ccccc2S3)oc(N2CCOCC2)c1 [KU55933] (first compound 0.4 µM, partner dose 1 µM)",216%,231%,145%,95.1%,193%,235%,646%,588%,81.5%,84.3%,163%,169%,454%,82%,118%,70.7%
"COc1ccc(C2=N[C@@H](c3ccc(Cl)cc3)[C@@H](c3ccc(Cl)cc3)N2C(=O)N2CCNC(=O)C2)c(OC(C)C)c1 [Nutlin-3] + CCc1ccc(CCOc2ccc(CC3SC(=O)NC3=O)cc2)nc1 [pioglitazone] (first compound 0.1 µM, partner dose 2 µM)",75.1%,118%,62.1%,124%,45.5%,109%,42.9%,176%,74.7%,107%,106%,108%,76.2%,244%,81.3%,37.7%
"CCCCCCCCc1ccc(CCC(N)(CO)CO)cc1 [fingolimod] + Cc1cc(N2CCOCC2)cc2[nH]c(-c3c(NC[C@@H](O)c4cccc(Cl)c4)cc[nH]c3=O)nc12 [BMS536924] (first compound 2 µM, partner dose 0.2 µM)",72.6%,74.3%,92.4%,81.6%,135%,132%,143%,321%,174%,70.1%,142%,82%,140%,73.1%,120%,106%

# Another view of part of the listing above.
SMILES	cleaved PARP positive nuclei fraction [1]	cleaved PARP positive nuclei fraction [2]	cleaved PARP positive nuclei fraction [3]	cleaved PARP positive nuclei fraction [4]	cleaved PARP positive nuclei fraction [5]	cleaved PARP positive nuclei fraction [6]	cleaved PARP positive nuclei fraction [7]	cleaved PARP positive nuclei fraction [8]	cleaved PARP positive nuclei fraction [9]	cleaved PARP positive nuclei fraction [10]	cleaved PARP positive nuclei fraction [11]	cleaved PARP positive nuclei fraction [12]	cleaved PARP positive nuclei fraction [13]	cleaved PARP positive nuclei fraction [14]	cleaved PARP positive nuclei fraction [15]	cleaved PARP positive nuclei fraction [16]
NC1(c2ccc(-c3nc4ccn5c(=O)[nH]nc5c4cc3-c3ccccc3)cc2)CCC1 + O=C1NC(=O)/C(=C/c2ccc(-c3ccc(F)cc3O)o2)S1 [AS252424] (first compound 0.4 µM, partner dose 1 µM)	136%	72.9%	53.9%	181%	250%	22.1%	68.6%	67.8%	484%	274%	266%	57.4%	110%	119%	92.7%	38%
NC1(c2ccc(-c3nc4ccn5c(=O)[nH]nc5c4cc3-c3ccccc3)cc2)CCC1 + O=c1cc(-c2cccc3c2Sc2ccccc2S3)oc(N2CCOCC2)c1 [KU55933] (first compound 0.4 µM, partner dose 1 µM)	28.1%	64.1%	67%	287%	347%	161%	46.4%	309%	118%	262%	301%	54%	95.6%	221%	70.5%	89.7%
